These are yes or no findings as the source states them, for the method shown. Binding seen in cells or lysates may run through a third protein. Some binding calls cover weakened binding; strength is not graded here.
Molecular target: T1, CCCTC‐binding factor (CTCF) (human (endogenous in THP-1)) (UniProt P49711)
T1 sequence: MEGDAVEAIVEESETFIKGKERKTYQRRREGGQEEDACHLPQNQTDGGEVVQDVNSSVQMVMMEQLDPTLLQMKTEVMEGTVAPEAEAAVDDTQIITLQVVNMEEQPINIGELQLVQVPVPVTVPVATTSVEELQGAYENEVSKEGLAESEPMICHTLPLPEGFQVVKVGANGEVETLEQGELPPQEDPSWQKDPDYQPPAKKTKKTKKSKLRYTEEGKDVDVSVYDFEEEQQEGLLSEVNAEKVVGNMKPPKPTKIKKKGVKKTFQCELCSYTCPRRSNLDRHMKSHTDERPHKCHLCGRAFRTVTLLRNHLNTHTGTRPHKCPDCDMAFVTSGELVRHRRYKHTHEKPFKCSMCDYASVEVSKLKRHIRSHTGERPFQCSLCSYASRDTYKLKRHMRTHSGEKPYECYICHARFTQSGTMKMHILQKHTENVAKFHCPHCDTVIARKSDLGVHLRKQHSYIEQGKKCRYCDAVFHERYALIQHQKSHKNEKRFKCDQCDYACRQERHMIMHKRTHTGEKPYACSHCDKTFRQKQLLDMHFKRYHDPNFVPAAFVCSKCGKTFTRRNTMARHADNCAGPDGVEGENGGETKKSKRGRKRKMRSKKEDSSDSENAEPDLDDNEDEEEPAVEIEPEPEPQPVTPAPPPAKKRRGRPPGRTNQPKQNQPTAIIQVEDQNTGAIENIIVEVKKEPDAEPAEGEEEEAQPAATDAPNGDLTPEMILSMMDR
Assay: co-IP; THP-1-derived TAMs lysed in IP lysis buffer with proteinase inhibitor; 1 ug anti-CTCF/anti-EP300, protein A Dynabeads at 4°C overnight, six washes; normal rabbit IgG as negative control; Western blot

By UniProt entry, the sequences of proteins in these tests, tags left out. Where a name states a change or a piece, a line headed by the entry shows the natural chain unless it says otherwise.
UniProt Q09472: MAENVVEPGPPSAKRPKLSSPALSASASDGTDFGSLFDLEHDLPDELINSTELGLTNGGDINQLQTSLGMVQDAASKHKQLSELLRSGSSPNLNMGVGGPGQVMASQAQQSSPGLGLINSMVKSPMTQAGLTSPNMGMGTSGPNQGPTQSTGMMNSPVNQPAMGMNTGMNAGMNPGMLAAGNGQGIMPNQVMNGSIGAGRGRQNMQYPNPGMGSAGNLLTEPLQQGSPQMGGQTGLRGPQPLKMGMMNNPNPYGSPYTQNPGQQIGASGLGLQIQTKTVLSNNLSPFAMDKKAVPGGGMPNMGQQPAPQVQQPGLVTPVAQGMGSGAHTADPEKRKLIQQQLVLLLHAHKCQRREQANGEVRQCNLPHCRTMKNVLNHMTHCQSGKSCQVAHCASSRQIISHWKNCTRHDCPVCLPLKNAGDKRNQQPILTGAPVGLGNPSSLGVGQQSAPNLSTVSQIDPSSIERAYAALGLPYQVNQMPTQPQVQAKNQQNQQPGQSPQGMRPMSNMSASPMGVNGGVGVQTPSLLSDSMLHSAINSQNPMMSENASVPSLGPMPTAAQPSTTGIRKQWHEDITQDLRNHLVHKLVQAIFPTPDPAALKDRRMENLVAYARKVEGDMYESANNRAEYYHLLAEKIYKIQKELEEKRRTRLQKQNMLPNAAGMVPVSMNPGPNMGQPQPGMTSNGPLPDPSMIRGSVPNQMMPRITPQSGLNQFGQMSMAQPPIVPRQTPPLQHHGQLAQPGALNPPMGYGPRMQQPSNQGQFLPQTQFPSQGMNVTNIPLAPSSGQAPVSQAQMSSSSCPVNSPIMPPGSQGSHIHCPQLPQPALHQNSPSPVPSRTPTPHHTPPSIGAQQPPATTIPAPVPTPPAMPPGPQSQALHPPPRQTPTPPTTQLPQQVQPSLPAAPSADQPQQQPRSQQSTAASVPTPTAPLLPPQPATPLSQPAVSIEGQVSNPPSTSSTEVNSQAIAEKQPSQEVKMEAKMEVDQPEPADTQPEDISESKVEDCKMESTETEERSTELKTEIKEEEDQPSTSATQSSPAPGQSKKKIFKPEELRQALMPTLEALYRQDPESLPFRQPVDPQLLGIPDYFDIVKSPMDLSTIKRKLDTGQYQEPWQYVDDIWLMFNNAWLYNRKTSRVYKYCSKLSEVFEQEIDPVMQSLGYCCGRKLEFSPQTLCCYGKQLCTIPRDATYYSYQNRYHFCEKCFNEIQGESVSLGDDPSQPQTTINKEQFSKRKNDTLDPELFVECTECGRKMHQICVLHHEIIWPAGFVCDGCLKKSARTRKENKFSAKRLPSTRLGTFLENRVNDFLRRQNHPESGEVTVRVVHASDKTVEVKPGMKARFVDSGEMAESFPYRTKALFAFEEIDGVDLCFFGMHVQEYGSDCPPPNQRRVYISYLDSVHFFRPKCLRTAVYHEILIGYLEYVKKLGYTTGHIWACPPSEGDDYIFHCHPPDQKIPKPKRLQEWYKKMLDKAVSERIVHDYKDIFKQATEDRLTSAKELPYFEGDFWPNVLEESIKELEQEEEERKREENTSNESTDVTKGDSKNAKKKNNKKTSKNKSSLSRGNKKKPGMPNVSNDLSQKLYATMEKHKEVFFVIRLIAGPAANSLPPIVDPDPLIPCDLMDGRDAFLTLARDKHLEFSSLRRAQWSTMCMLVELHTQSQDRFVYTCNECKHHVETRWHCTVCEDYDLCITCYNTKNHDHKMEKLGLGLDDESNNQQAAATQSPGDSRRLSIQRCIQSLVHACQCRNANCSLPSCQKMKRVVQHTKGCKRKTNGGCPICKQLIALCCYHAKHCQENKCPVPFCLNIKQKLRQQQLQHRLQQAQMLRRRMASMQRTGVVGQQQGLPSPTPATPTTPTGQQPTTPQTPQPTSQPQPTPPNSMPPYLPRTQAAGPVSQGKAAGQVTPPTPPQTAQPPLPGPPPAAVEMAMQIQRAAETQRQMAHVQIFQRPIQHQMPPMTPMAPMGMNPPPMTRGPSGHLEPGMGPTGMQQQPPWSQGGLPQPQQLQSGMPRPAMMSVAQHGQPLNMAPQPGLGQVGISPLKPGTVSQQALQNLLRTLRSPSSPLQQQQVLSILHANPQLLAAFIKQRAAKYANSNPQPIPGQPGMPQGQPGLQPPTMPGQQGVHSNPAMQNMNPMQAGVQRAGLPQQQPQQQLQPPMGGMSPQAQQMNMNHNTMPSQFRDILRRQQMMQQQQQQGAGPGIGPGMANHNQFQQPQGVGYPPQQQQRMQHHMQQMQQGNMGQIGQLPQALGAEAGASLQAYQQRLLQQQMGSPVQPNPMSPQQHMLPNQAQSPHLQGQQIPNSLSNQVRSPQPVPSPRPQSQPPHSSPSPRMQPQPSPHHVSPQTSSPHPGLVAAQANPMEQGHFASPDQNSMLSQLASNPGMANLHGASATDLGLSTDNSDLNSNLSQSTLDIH

- binding: binds
Substance: E1A binding protein p300 (EP300) (from UniProt Q09472 1-2414) (enzyme)
